Laboratory results published in PMC4809424.
No constants are given. Whether binding was seen depends on the method and setting. Binding seen in cells or lysates may run through a third protein. Some binding calls cover weakened binding; strength is not graded here. For part of these data: Tags and fused reporters may be left off the sequences shown.

Amino acid sequences for entries named in this document (tags omitted).
UniProt Q14694: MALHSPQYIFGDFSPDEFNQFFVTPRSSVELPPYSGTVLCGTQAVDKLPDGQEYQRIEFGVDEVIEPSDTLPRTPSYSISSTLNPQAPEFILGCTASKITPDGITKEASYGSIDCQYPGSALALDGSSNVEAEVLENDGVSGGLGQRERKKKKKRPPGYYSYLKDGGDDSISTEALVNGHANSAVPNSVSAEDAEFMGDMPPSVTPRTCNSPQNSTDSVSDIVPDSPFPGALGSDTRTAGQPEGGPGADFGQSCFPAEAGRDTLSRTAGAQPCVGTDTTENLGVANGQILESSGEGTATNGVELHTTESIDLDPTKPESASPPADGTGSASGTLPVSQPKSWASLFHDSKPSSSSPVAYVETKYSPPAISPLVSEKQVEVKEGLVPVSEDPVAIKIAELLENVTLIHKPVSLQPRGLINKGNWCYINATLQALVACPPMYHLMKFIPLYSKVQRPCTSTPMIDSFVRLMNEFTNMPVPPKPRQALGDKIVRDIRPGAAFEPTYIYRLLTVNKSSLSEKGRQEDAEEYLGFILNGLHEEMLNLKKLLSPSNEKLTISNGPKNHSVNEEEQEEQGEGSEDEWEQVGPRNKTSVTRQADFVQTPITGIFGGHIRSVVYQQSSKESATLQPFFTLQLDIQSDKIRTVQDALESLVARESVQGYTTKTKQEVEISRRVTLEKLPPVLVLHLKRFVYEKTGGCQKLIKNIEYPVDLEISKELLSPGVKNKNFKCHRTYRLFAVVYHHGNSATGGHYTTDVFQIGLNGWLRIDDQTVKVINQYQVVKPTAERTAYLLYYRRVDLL
UniProt P14635: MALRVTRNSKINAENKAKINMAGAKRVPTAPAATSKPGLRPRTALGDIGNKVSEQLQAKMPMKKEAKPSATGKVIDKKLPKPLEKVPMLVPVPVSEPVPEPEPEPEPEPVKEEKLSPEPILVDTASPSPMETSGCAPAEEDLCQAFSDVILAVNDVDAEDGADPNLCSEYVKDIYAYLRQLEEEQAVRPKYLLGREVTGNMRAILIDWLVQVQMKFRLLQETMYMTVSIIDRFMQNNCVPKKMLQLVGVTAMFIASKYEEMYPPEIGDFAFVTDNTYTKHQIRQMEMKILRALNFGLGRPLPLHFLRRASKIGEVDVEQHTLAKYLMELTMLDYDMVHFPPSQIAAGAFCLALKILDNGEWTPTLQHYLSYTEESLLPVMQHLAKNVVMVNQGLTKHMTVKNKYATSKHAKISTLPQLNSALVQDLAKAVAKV
UniProt Q9BQ67: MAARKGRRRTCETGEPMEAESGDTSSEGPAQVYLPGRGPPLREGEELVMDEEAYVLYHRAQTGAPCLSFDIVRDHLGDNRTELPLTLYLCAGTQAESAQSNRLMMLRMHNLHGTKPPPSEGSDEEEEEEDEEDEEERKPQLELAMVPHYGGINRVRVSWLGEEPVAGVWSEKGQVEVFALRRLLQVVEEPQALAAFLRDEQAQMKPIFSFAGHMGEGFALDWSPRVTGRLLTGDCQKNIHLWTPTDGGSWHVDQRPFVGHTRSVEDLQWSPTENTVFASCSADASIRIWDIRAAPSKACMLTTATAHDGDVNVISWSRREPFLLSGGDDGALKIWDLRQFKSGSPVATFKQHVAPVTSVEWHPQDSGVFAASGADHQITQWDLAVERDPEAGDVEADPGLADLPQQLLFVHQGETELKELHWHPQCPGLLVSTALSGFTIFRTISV

Columns and labels:
GST-USP10 fusion protein = GST-USP10 fusion protein (UniProt Q14694); assay: pull-down; lysate of HCT116 cells transfected with Flag-tagged CCNB1 (48 h) incubated with GST-USP22 or GST-USP10 and GSH-Sepharose; retained proteins blotted; only the target purified
GST-USP22 fusion protein = molecular target: T1, GST-USP22 fusion protein (UniProt Q9UPT9); assay: as above
T1 sequence: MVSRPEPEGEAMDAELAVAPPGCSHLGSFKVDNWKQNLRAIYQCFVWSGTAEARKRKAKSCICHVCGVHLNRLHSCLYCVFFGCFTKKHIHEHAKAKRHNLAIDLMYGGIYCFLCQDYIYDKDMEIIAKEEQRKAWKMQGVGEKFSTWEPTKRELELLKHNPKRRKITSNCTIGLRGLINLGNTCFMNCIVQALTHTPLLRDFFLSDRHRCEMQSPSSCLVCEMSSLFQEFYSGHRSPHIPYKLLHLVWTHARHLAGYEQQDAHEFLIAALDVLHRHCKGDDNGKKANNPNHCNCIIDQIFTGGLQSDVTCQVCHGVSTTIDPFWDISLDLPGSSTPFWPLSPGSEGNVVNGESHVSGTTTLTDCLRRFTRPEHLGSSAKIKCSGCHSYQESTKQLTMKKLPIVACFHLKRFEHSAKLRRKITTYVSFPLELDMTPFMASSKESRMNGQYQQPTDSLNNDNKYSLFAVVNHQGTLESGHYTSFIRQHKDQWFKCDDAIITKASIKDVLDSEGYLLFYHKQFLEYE

Flag-tagged CCNB1 = Flag-tagged CCNB1 (UniProt P14635); assay: co-IP; transiently transfected HCT116 cells; RIPA lysis buffer with protease inhibitor; indicated antibody (1 ug/ml) and protein G-sepharose; immunoblotting; in Figure 5g cells with control or CDC20-specific siRNA

binding (GST-USP10 fusion protein)	binding (GST-USP22 fusion protein)	binding (Flag-tagged CCNB1)	Substance
no binding	binds	–	Flag-tagged CCNB1 (from UniProt P14635 1-433)
–	–	no binding	GRWD1 (test in transiently transfected HCT116 cells) (from UniProt Q9BQ67 1-446)
